# In PubChem BioAssay AID330 (DTP/NCI, 2004):
# The list is a part of this screen's results and no random one: it is rich in T/C values a quarter to a half above the control, in often repeated tests (any T/C) and in doses without a T/C. Further doses and runs are listed elsewhere. T/C gives the treated animals as a percentage of the vehicle group. Some entries give survivors of the animals treated and no T/C: the source holds a T/C of zero for them, seemingly a mark for toxic or unscored doses. Some survivor counts are full or nearly so, which does not show that the dose was tolerated: the source hardly ever lists a survival T/C far under the control, and the zero likely stands for such cases as well. Survivors were counted at the toxicity check, usually on the fifth day, unless a day is given; later deaths do not show. Schedules are NCI's codes, read here as Q, the interval in days (D) or hours (H), X, the number of doses. Some doses were run more than once; the results are listed from low to high. For survival time, the PubChem record calls one and a half times the control and up active, and a quarter to a half above the control has no call in these data; cut-offs in other NCI protocols can differ. Some T/C values are followed by the survivors on the day toxicity was checked, most often the fifth; without a count, all were alive then.
# System: P388 leukemia ip, CD2F1 mice, survival T/C
# Assay: NCI In Vivo Anticancer Drug Screen. Data for tumor model P388 Leukemia (intraperitoneal) in CD2F1 (CDF1) mice
# Settings: T/C endpoint: median survival time, higher T/C = longer survival
# [1] = dose: 200.0 mg/kg/injection, schedule: Q01DX009 (ip), vehicle: distilled water + Tween-80
# [2] = dose: 100.0 mg/kg/injection, schedule: Q01DX009 (ip), vehicle: saline with Tween-80
# [3] = dose: 200.0 mg/kg/injection, schedule: Q01DX009 (ip), vehicle: saline with Tween-80
# [4] = dose: 12.5 mg/kg/injection, schedule: Q01DX009 (ip), vehicle: Klucel (hydroxypropylcellulose) (HPC)
# [5] = dose: 25.0 mg/kg/injection, schedule: Q01DX009 (ip), vehicle: Klucel (hydroxypropylcellulose) (HPC)
# [6] = dose: 50.0 mg/kg/injection, schedule: Q01DX009 (ip), vehicle: Klucel (hydroxypropylcellulose) (HPC)
# [7] = dose: 100.0 mg/kg/injection, schedule: Q01DX009 (ip), vehicle: Klucel (hydroxypropylcellulose) (HPC)
# [8] = dose: 200.0 mg/kg/injection, schedule: Q01DX009 (ip), vehicle: Klucel (hydroxypropylcellulose) (HPC)
# [9] = dose: 50.0 mg/kg/injection, schedule: Q01DX005 (ip), vehicle: Klucel (hydroxypropylcellulose) (HPC)
# [10] = dose: 100.0 mg/kg/injection, schedule: Q01DX005 (ip), vehicle: Klucel (hydroxypropylcellulose) (HPC)
# [11] = dose: 200.0 mg/kg/injection, schedule: Q01DX005 (ip), vehicle: Klucel (hydroxypropylcellulose) (HPC)
# [12] = dose: 240.0 mg/kg/injection, schedule: Q01DX005 (ip), vehicle: Klucel (hydroxypropylcellulose) (HPC)
# [13] = dose: 400.0 mg/kg/injection, schedule: Q04DX002 (ip), vehicle: saline with Tween-80
# [14] = dose: 50.0 mg/kg/injection, schedule: Q01DX009 (ip), vehicle: saline with Tween-80
smiles,measurement,setting,value
CCCCCNC(=O)OCc1c(COC(=O)NCCCCC)c(-c2ccc(Cl)c(Cl)c2)n2c1CCC2,T/C,"dose: 50.0 mg/kg/injection, schedule: Q01DX009 (ip), vehicle: distilled water + Tween-80, evaluated on day 30",138 % of control
same,T/C,"dose: 50.0 mg/kg/injection, schedule: Q01DX009 (ip), vehicle: distilled water + Tween-80, evaluated on day 45",137 % of control
same,T/C,"dose: 100.0 mg/kg/injection, schedule: Q01DX009 (ip), vehicle: distilled water + Tween-80",137 % of control
same,T/C,[1],135 % of control [4 of 6 alive]
same,survivor count,[1],4 of 6
CCSC(C#N)C(C)=O (stereo not given),survivor count,[2],6 of 6
same,survivor count,[3],0 of 6
NC(=O)C1(Br)C=[N+](Cc2ccccc2)CCC1 (stereo not given),survivor count,"dose: 240.0 mg/kg/injection, schedule: Q01DX005 (ip), vehicle: saline",0 of 6
CC(C)(C)C1=CC(=C/C=C/c2cc(C(C)(C)C)[o+]c(C(C)(C)C)c2)C=C(C(C)(C)C)O1,T/C,"dose: 6.25 mg/kg/injection, schedule: Q01DX009 (ip), vehicle: Klucel (hydroxypropylcellulose) (HPC)",127 % of control
same,T/C,[4],127 % of control
same,T/C,[5],127 % of control [5 of 6 alive]
same,survivor count,[6],0 of 6 and 4 of 6
same,survivor count,[7],0 of 6
same,survivor count,[8],0 of 6
[Br][Sn]([CH2][Sn]([Br])([c]1ccccc1)[c]1ccccc1)([c]1ccccc1)[c]1ccccc1,T/C,"dose: 12.5 mg/kg/injection, schedule: Q01DX005 (ip), vehicle: Klucel (hydroxypropylcellulose) (HPC)",127 % of control
same,T/C,"dose: 25.0 mg/kg/injection, schedule: Q01DX005 (ip), vehicle: Klucel (hydroxypropylcellulose) (HPC)",127 % of control
same,T/C,[9],127 % of control
same,survivor count,[9],3 of 6
same,survivor count,[10],5 of 6
same,survivor count,[11],0 of 6
CC(C)(SSC(C)(C)C1NC(=O)NC1=O)C1NC(=O)NC1=O (stereo not given),survivor count,[9],6 of 6
same,survivor count,[10],1 of 6
same,survivor count,[11],0 of 6
O=C(O)c1ncn2c(=O)n(CCCl)nnc12,T/C,"dose: 120.0 mg/kg/injection, schedule: Q01DX005 (ip), vehicle: Klucel (hydroxypropylcellulose) (HPC)",140 % of control
same,T/C,[12],143 % of control
COc1cc2c(c3c1c(=O)c1ccccc1n3C)C=C([N+](=O)[O-])C(C)(C)O2,survivor count,"dose: 24.0 mg/kg/injection, schedule: Q01DX005 (ip), vehicle: saline + Tween-80 + alcohol",6 of 6
O=CCC(O)C(O)C(O)CO (stereo not given),T/C,"dose: 1200.0 mg/kg/injection, schedule: Q01DX009 (ip), vehicle: saline",125 and 134 % of control
same,T/C,"dose: 2400.0 mg/kg/injection, schedule: Q01DX009 (ip), vehicle: saline",137 % of control
COc1ccc2c(c1)C(CCN(C)C)(CCN(C)C)C(=O)CC2,survivor count,"dose: 100.0 mg/kg/injection, schedule: Q01DX005 (ip), vehicle: saline",2 of 6
same,survivor count,"dose: 200.0 mg/kg/injection, schedule: Q01DX005 (ip), vehicle: saline",0 of 6
O=Cc1cccc(C=O)c1,survivor count,"dose: 5.0 mg/kg/injection, schedule: Q04DX002 (ip), vehicle: saline with Tween-80",6 of 6
same,survivor count,"dose: 10.0 mg/kg/injection, schedule: Q04DX002 (ip), vehicle: saline with Tween-80",6 of 6
same,survivor count,"dose: 20.0 mg/kg/injection, schedule: Q04DX002 (ip), vehicle: saline with Tween-80",1 of 6
same,survivor count,"dose: 100.0 mg/kg/injection, schedule: Q04DX002 (ip), vehicle: saline with Tween-80",0 of 6
same,survivor count,"dose: 200.0 mg/kg/injection, schedule: Q04DX002 (ip), vehicle: saline with Tween-80",0 of 6
same,survivor count,[13],0 of 6
CC(=O)NC1=CC(=O)c2[nH]c(=O)[nH]c(=O)c2C1=O,survivor count,"dose: 25.0 mg/kg/injection, schedule: Q01DX005 (ip), vehicle: DMSO",0 of 6
same,survivor count,"dose: 25.0 mg/kg/injection, schedule: Q01DX005 (ip), vehicle: other",2 of 6
same,survivor count,"dose: 50.0 mg/kg/injection, schedule: Q01DX005 (ip), vehicle: DMSO",0 of 6
same,survivor count,"dose: 100.0 mg/kg/injection, schedule: Q01DX005 (ip), vehicle: DMSO",0 of 6
same,survivor count,"dose: 200.0 mg/kg/injection, schedule: Q01DX005 (ip), vehicle: DMSO",0 of 6
CC(=O)NC(CCc1ccc(Cl)c(Cl)c1)c1cccc(O)c(=O)c1 (stereo not given),T/C,[6],"125, 130, 141 % of control"
same,survivor count,[7],6 of 6
same,survivor count,[8],6 of 6
COC(=O)N1N=C(c2ccccc2)C(C(=O)OC)(C(=O)OC)c2ccccc21,survivor count,"dose: 240.0 mg/kg/injection, schedule: Q01DX005 (ip), vehicle: saline with Tween-80",6 of 6
O=C(c1ccccc1)C1C(c2ccccc2)C2(CCCCC2=O)C(c2ccccc2)CC1(O)c1ccccc1 (stereo not given),survivor count,"dose: 6.25 mg/kg/injection, schedule: Q01DX001 (ip), vehicle: Klucel (hydroxypropylcellulose) (HPC)",6 of 6
same,survivor count,"dose: 12.5 mg/kg/injection, schedule: Q01DX001 (ip), vehicle: Klucel (hydroxypropylcellulose) (HPC)",6 of 6
NCCc1cc2ccccc2c2ccccc12,survivor count,[10],0 of 6
same,survivor count,[11],0 of 6
Clc1cc2nc3[nH]c4ccccc4c3nc2cc1Cl,survivor count,[12],5 of 6
O=C(c1cccnc1)c1cc(-c2ccccn2)c(=O)n2ccccc12,T/C,[3],125 and 144 % of control
CC(=O)OCc1c(COC(C)=O)c(-c2ccc(Cl)cc2)n2c1CCC2,survivor count,[7],6 of 6
same,survivor count,[8],0 of 6
O=C(CCl)Nc1nncs1,survivor count,"dose: 400.0 mg/kg/injection, schedule: Q01DX009 (ip), vehicle: distilled water + Tween-80",0 of 6
N#CC(C#N)=NNc1c(Br)cc(Cl)cc1Br,survivor count,[4],0 of 6
same,survivor count,[5],0 of 6
same,survivor count,[6],0 of 6
same,survivor count,[7],0 of 6
same,survivor count,[8],0 of 6
COc1cccc2c1C(=O)c1c(O)c3c(c(O)c1C2=O)CC(O)(/C(C)=N/NC(=S)c1ccccc1)CC3OC1CC(N)C(O)C(C)O1 (stereo not given),survivor count,"dose: 1.56 mg/kg/injection, schedule: Q01DX009 (ip), vehicle: other",3 of 4
same,T/C,"dose: 1.56 mg/kg/injection, schedule: Q04DX003 (ip), vehicle: saline",137 % of control
same,T/C,"dose: 3.13 mg/kg/injection, schedule: Q04DX003 (ip), vehicle: saline",146 % of control
CC1(C)CC(=O)c2c(ncc3cc4c(cc23)OCO4)C1,T/C,[13],139 % of control
COC(=O)C1CC2CCCCC2CC1OC(C)=O (stereo not given),T/C,[14],126 % of control
C[N+](C)=C1C=CC(=C2C=CSC=C2)C=C1,T/C,"dose: 3.12 mg/kg/injection, schedule: Q01DX009 (ip), vehicle: saline",125 % of control
same,T/C,"dose: 6.25 mg/kg/injection, schedule: Q01DX009 (ip), vehicle: saline",125 % of control
same,survivor count,"dose: 25.0 mg/kg/injection, schedule: Q01DX009 (ip), vehicle: saline",6 of 6
same,survivor count,"dose: 50.0 mg/kg/injection, schedule: Q01DX009 (ip), vehicle: saline",1 of 6 and 2 of 6
same,survivor count,"dose: 100.0 mg/kg/injection, schedule: Q01DX009 (ip), vehicle: saline",0 of 6
same,survivor count,"dose: 200.0 mg/kg/injection, schedule: Q01DX009 (ip), vehicle: saline",0 of 6
CC(=O)NC1C(OC(C)=O)OC(CS[As](C)C)C(OC(C)=O)C1OC(C)=O (stereo not given),T/C,[14],129 % of control
same,T/C,[2],135 and 136 % of control
same,survivor count,[3],3 of 6 and 5 of 6
COc1c(CCl)cc(-c2sc3ccccc3c(=O)c2CCl)cc1CCl,T/C,"dose: 100.0 mg/kg/injection, schedule: Q01DX005 (ip), vehicle: saline with Tween-80",128 % of control
Fc1ccc(CSC(=S)Nc2cccc(C(F)(F)F)c2)cc1,survivor count,"dose: 200.0 mg/kg/injection, schedule: Q01DX009 (ip), vehicle: suspension in saline",6 of 6
